{"source": "patent US20240327509A1", "about": "“HUMAN CXCLI6 ANTIBODIES AND THE USE THEREOF” (CELLUS,INC., priority 2021, published 2024)", "binders": {"B1": {"name": "HC5LC1 (antibody, human IgG1, kappa, V domains shown)", "VH": "EVQLVESGGGLVQPGGSLKLSCAASGFTFSNAVMNWVRQASGKGLEWVARIRTKPNNYATFYADSVKGRFTFSRDDSKNTAYLQMNSLKTEDTAMYYCTAWTTEGIYWGQGTLVTVSS", "VL": "DIVMTQSPDSLAVSAGETVTINCKSSQSLLYSGNQKNYLAWYQQKPGQSPKLLIYWASTRQSGVPDRFSGSGSGTDFTLTISSVQAEDVAVYYCQQYYDTPWTFGGGTKVEIKR", "notes": "Humanized; human IgG1 / kappa constant domains; also called HCSLC1; humanized CXCL16 antibody HC5LC1"}, "B2": {"name": "HC4LC1 (antibody, human IgG1, kappa, V domains shown)", "VH": "B1 VH with Q13K, K19R, S41P, A81L, M95V, L113T", "VL": "B1 VL", "notes": "Humanized; human IgG1 / kappa constant domains; also called humanized CXCL16 antibody HC4LC1"}, "B3": {"name": "HC5LC5 (antibody, human IgG1, kappa, V domains shown)", "VH": "B1 VH", "VL": "B1 VL with D9S, T18R, V19A, S69I, V84L, V91I, V110L, I112L", "notes": "Humanized; human IgG1 / kappa constant domains; also called HCSLCS; humanized CXCL16 antibody HC5LC5"}, "B4": {"name": "HC5LC2 (antibody, human IgG1, kappa, V domains shown)", "VH": "B1 VH", "VL": "B1 VL with D9S, A15L, V19A, S49P, S69T, S73A, V89L, V91I", "notes": "Humanized; human IgG1 / kappa constant domains; also called HCSLC2; humanized CXCL16 antibody HC5LC2"}, "B5": {"name": "HC5LC3 (antibody, human IgG1, kappa, V domains shown)", "VH": "B1 VH", "VL": "DIQMTQSPSSLSASVGDRVTITCKSSQSLLYSGNQKNYLAWYQQKPGQSPKLLIYWASTRQSGVPDRFSGSGSGTDFTLTISSLQAEDFATYYCQQYYDTPWTFGGGTKVEIKR", "notes": "Humanized; human IgG1 / kappa constant domains; also called HCSLC3; humanized CXCL16 antibody HC5LC3"}, "B6": {"name": "Chimeric antibody HC0LC0 (antibody, V domains shown)", "VH": "B1 VH with E1A, G15K, G16E, L20I, S41P, N79S, T80M, A81V, N86D, S87N", "VL": "B1 VL with D9S, S69I, V89L, V91I, V110L, I112L", "notes": "also called CLS-A1HC0LC0; variant antibody"}}, "note": "Numbering of substitutions follows the chain as printed. Results are given in words; binding and its absence hold for the method and conditions named. Some results given as binding are weak or reduced against the parent protein; the word gives no strength."}
{"target": "T1, Recombinant human CXCL16 (rhCXCL16) protein (human) (UniProt Q9H2A7)", "T1 sequence": "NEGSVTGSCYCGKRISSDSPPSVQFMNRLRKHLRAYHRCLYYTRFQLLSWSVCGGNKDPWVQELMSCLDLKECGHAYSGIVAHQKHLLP", "test": "bio-light interferometry assay"}
{"binder": "B1", "binding": "binds"}
{"binder": "B2", "binding": "binds"}
{"binder": "B3", "binding": "binds"}
{"binder": "B4", "binding": "binds"}
{"binder": "B5", "binding": "binds"}
{"target": "T1, Recombinant human CXCL16 (rhCXCL16) protein (human)", "test": "ELISA, recombinant human CXCL16 immobilized on plate, antibody 0.001~10 nM"}
{"binder": "B1", "binding": "binds"}
{"binder": "B2", "binding": "binds"}
{"binder": "B3", "binding": "binds"}
{"binder": "B4", "binding": "binds"}
{"binder": "B5", "binding": "binds"}
{"target": "T1, Recombinant human CXCL16 (rhCXCL16) protein (human)", "test": "bio-light interferometry (ForteBio)"}
{"binder": "B1", "binding": "binds"}
{"binder": "B2", "binding": "binds"}
{"binder": "B3", "binding": "binds"}
{"binder": "B4", "binding": "binds"}
{"binder": "B5", "binding": "binds"}
{"target": "T1, Recombinant human CXCL16 (rhCXCL16) protein (human)", "test": "note to Table 6 (BLI, ForteBio)"}
{"binder": "B6", "binding": "binds"}
{"target": "T1, Recombinant human CXCL16 (rhCXCL16) protein (human)", "test": "ELISA, recombinant human CXCL16 immobilized on the plate, HRP-labeled anti-human IgG detection, OD 450 nm"}
{"binder": "B6", "binding": "binds"}
{"binder": "B1", "binding": "binds"}
{"binder": "B2", "binding": "binds"}
{"binder": "B3", "binding": "binds"}
{"binder": "B4", "binding": "binds"}
{"target": "T1, Recombinant human CXCL16 (rhCXCL16) protein (human)", "test": "bio-light interferometry assay; refers to Table 6 and Example 1"}
{"binder": "B1", "binding": "binds"}
{"binder": "B2", "binding": "binds"}
{"binder": "B3", "binding": "binds"}
{"binder": "B4", "binding": "binds"}
{"binder": "B5", "binding": "binds"}
{"target": "T1, Recombinant human CXCL16 (rhCXCL16) protein (human)", "test": "bio-light interferometry (ForteBio); refers to Table 6 and Example 1"}
{"binder": "B1", "binding": "binds"}
{"binder": "B2", "binding": "binds"}
{"binder": "B3", "binding": "binds"}
{"binder": "B4", "binding": "binds"}
{"binder": "B5", "binding": "binds"}
